The text below walks through data of article PMC10724275.

Protein sequences, listed by entry. Tags and fused reporters are not part of them.
UniProt Q13309: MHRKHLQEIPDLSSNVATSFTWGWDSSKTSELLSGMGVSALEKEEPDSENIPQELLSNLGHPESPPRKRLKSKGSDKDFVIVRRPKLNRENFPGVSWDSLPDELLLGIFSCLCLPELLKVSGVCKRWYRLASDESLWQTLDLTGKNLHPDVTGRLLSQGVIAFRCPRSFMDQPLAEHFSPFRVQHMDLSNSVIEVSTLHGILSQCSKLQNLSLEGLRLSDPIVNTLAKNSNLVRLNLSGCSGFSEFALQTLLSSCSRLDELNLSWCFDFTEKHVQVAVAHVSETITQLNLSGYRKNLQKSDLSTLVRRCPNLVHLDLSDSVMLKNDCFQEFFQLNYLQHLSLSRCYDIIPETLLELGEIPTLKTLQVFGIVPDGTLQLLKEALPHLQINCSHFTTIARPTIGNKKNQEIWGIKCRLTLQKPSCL

Assay [1] concerns the target S-phase kinase-associated protein-2 (SKP2) (human (endogenous in RD and JR1)) (UniProt Q13309). Put plainly: proximity ligation; DuoLink PLA in situ on RD and JR1 cells with antibodies against SKP2 and the partner; single antibodies alone as negative controls; confocal microscopy.
Assay [2] has the same target. Nature of the assay: co-IP; endogenous SKP2 precipitated with anti-SKP2 mouse antibody from 1.5 mg whole-cell extract of RD and JR1 cells; Triton buffer (50 mM Tris-HCl pH 7.5, 250 mM NaCl, 50 mM NaF, 1 mM EDTA, 0.1% Triton), 4 °C overnight, Dynabeads protein A or G; western blot.

No constants are given. Whether binding was seen depends on the method and setting. Binding seen in cells or lysates may run through a third protein. Some results given as binding are weak or reduced against the parent protein; the word gives no strength.

B1: p57^Kip2 (protein, UniProt P49918 1-316)
chain: MSDASLRSTSTMERLVARGTFPVLVRTSACRSLFGPVDHEELSRELQARLAELNAEDQNRWDYDFQQDMPLRGPGRLQWTEVDSDSVPAFYRETVQVGRCRLLLAPRPVAVAVAVSPPLEPAAESLDGLEEAPEQLPSVPVPAPASTPPPVPVLAPAPAPAPAPVAAPVAAPVAVAVLAPAPAPAPAPAPAPAPVAAPAPAPAPAPAPAPAPAPAPDAAPQESAEQGANQGQRGQEPLADQLHSGISGRPAAGTAAASANGAAIKKLSGPLISDFFAKRKRSAPEKSSGDVPAPCPSPSAAPGVGSVEQTPRKRLR
For the molecule B1, the binding result in assay [1] and in assay [2] was “binds” in each case.
